Laboratory results from patent US20090214439A1, “Fluorinated Carbohydrates and Their Use in Tumor Visualization, Tissue Engineering, and Cancer Chemotherapy” (Trustees of Tufts College, priority 2006, published 2009).

System: Jurkat, HL-60 and HeLa cells
Experiment: ESI-MS analysis of cytosolic fractions (conversion of N-acyl mannosamines to sialic acids)
Format: cell-based
Conditions: cells treated with 200 μM of the corresponding N-acyl mannosamine 4 for 36-48 hrs
Procedure: ESI-MS Analysis of Cytosolic Fractions. The ability of fluorinated N-acyl mannosamines 4a, 4b, 4d, 4e, and 4g (see FIG. 2 for structures) to cross the plasma membrane and undergo subsequent conversion to the corresponding sialic acids was probed using electrospray ionization mass spectral (ESI-MS) analysis of cytosolic fractions. Three cell lines, Jurkat (ATTC TIB-152), HL-60 (ATCC CCL-240) and HeLa (ATCC CCL-2) were investigated. Briefly, cells (usually 5×10^5 cells/mL in 20 mL culture medium) were treated with 200 μM compound for 36-48 hrs, and then the cytosolic fraction was collected by pelleting the cells, washing, and subsequent lysing induced by freeze-thaw cycles. The isolate was then passed through a 3000 MW cutoff filter, concentrated, and analyzed by LC ESI-MS using a Vydac C4 (2.1 mm×150 mm, 5μ) column using a linear gradient of CH3CN/H2O.

5-N-trifluorobutyl-Neu [Compound 5g]
detection of the sialic acid in the cytosolic fraction by LC ESI-MS: not detected

O=C(CC(F)(F)F)N[C@H]1[C@H]([C@H](O)[C@H](O)CO)OC(O)(C(=O)O)C[C@@H]1O (some centres unmarked) [Compound 5e, 5-N-trifluoropropyl-Neu]
detection of the sialic acid in the cytosolic fraction by LC ESI-MS: not detected
